No constants are given. Whether binding was seen depends on the method and setting. Some entries that bind do so weakly or less than the wild type.

Sequences of proteins named here, by UniProt entry; tags and fusion partners are left off. A change or cut given only in a name is not applied to a line headed by its entry.
UniProt P06756: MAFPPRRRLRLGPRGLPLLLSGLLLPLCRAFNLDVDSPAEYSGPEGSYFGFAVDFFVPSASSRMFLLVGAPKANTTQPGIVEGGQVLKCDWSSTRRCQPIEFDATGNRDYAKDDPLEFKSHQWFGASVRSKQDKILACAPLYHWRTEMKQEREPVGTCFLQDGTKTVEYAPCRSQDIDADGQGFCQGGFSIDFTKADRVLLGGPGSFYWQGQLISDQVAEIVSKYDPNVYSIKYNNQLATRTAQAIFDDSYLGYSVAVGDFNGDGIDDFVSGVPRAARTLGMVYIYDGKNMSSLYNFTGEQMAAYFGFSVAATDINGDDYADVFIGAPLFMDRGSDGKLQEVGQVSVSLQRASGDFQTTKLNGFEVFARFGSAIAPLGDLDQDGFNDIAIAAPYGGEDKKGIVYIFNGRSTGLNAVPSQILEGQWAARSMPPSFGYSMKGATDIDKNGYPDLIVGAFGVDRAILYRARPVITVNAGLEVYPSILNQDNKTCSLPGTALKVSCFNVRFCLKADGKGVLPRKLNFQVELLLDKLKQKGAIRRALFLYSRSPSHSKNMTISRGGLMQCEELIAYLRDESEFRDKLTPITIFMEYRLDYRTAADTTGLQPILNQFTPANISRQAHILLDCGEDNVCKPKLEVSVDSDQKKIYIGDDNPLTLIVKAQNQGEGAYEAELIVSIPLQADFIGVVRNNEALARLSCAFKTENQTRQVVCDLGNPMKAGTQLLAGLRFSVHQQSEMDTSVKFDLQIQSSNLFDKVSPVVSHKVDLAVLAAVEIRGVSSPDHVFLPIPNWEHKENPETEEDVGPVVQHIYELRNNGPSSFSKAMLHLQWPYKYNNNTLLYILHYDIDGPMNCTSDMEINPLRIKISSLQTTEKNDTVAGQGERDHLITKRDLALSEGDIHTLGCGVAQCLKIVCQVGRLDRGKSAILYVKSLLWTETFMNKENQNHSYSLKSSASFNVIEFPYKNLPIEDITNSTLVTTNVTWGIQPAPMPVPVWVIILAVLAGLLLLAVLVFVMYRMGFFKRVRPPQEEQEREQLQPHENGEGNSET

Test [1] has as its target integrin αVβ5 (USBiological, 37K, Swampscott, Mass.) (UniProt P06756). Nature of the test: ELISA, αVβ5-coated plates, anti-Flag-HRP detection.
For test [2] the target is unchanged. Nature of the test: ELISA, αVβ5-coated plates (legend of FIG. 13, Panel A). On the technique in general: ELISA stands for enzyme-linked immunosorbent assay.

B1: recombinant mANGPTL4 (murine angiopoietin-like 4 protein) (ligand, mouse, UniProt Q9Z1P8 23-410, looked up)
chain: AQGRPAQPEPPRFASWDEMNLLAHGLLQLGHGLREHVERTRGQLGALERRMAACGNACQGPKGKDAPFKDSEDRVPEGQTPETLQSLQTQLKAQNSKIQQLFQKVAQQQRYLSKQNLRIQNLQSQIDLLAPTHLDNGVDKTSRGKRLPKMTQLIGLTPNATHLHRPPRDCQELFQEGERHSGLFQIQPLGSPPFLVNCEMTSDGGWTVIQRRLNGSVDFNQSWEAYKDGFGDPQGEFWLGLEKMHSITGNRGSQLAVQLQDWDGNAKLLQFPIHLGGEDTAYSLQLTEPTANELGATNVSPNGLSLPFSTWDQDHDLRGDLNCAKSLSGGWWFGTCSHSNLNGQYFHSIPRQRQERKKGIFWKTWKGRYYPLQATTLLIQPMEATAAS
B1: the binding entry in test [1] and in test [2] was “binds” in each case.

B2: IgG-hANGPTL4-Nterminal (1-183) (Fc fusion, not shown: large carriers)
chain: GPVQSKSPRFASWDEMNVLAHGLLQLGQGLREHAERTRSQLSALERRLSACGSACQGTEGSTDLPLAPESRVDPEVLHSLQTQLKAQNSRIQQLFHKVAQQQRHLEKQHLRIQHLQSQFGLLDHKHLDHEVAKPARRKRLPEMAQPVDPAHNVSRLHR
Regarding B2, the binding entry in test [1] and in test [2] was “binds” throughout.

These data come from US20060093607A1.
